In paper PMC6367803:
Results are given in words; binding and its absence hold for the method and conditions named. Binding seen in cells or lysates may run through a third protein. Some results given as binding are weak or reduced against the parent protein; the word gives no strength. Tags and fused reporters may be left off the sequences shown.

Target: T1, Flag-SPAG5 (sperm-associated antigen 5) (UniProt Q96R06)
T1 sequence: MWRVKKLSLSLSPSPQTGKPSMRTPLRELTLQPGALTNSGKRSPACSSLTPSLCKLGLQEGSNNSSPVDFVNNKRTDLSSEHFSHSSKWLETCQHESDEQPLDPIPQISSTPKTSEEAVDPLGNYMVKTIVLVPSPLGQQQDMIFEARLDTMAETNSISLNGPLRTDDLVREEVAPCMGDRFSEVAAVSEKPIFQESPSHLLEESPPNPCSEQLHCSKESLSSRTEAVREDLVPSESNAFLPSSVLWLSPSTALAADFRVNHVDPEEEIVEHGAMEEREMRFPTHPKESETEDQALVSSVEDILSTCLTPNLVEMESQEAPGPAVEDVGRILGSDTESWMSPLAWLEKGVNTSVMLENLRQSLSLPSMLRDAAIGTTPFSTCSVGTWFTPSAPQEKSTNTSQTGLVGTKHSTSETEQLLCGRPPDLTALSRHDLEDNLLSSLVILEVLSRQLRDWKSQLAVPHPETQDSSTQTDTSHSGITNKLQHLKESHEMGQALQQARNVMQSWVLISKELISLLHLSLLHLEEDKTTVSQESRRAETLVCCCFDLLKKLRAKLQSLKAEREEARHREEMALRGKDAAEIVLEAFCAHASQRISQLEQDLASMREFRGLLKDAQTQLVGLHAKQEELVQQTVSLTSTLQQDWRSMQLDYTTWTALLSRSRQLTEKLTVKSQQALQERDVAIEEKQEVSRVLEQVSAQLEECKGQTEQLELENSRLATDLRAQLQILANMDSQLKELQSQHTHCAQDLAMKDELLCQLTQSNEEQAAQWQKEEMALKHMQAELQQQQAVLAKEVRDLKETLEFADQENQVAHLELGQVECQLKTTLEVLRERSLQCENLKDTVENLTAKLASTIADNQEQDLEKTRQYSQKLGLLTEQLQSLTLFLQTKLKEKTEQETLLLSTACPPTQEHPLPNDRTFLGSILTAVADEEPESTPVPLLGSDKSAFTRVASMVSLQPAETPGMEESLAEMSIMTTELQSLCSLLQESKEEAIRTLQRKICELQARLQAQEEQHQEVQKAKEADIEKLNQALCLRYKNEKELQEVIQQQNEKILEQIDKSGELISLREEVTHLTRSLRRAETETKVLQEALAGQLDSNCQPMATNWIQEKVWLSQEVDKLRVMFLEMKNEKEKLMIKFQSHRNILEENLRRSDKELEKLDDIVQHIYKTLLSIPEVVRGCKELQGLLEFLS
Assay: co-IP; lysates of MDA-MB-231 and BT549 cells with Flag-SPAG5 in NP-40 lysis buffer (50 mM Tris-HCl pH 8, 150 mM NaCl, 0.5% NP-40, 10% glycerol, 2 mM MgCl2, 1 mM EDTA); 3 ug Flag antibody overnight at 4 °C, protein G Sepharose beads; western blot

B1: c-MYC binding protein (MYCBP) (protein, UniProt Q99417 1-103)
chain: MAHYKAADSKREQFRRYLEKSGVLDTLTKVLVALYEEPEKPNSALDFLKHHLGAATPENPEIELLRLELAEMKEKYEAIVEENKKLKAKLAQYEPPQEEKRAE
B1 was tested. Which binding did it give?
Its binding is “binds”.
